Results deposited as PubChem BioAssay AID1259308 (NCATS, 2017)
Aim: 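Knock-downs that increase output of a recombinant reporter protein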 (primary screen). Cell system: human HEK293 embryonic kidney cells stably expressing firefly luciferase (HEK-CMV-Luc2-Hygro). Reagent: single siRNA against human genes, 0.8 pmol siRNA per well. Duration: 72 h. Read-out: 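Reporter luminescence and viable-cell signal on separate replicate plates, given as percent of non-targeting control and median/MAD z-scores, plus per-cell luciferase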. Reading the numbers: total luciferase, z-score and total luciferase, % of control: higher = more reporter protein produced; luciferase per cell, z-score: higher = more reporter output per viable cell; viable cells, % of control: higher = more viable cells. Call rule: 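Active when the median/MAD z-score for overall luciferase is greater than 3; a gene was taken forward for validation with new siRNAs if at least two of its three siRNAs passed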. Calls: active = raised luciferase; inactive = no rise.
The whole screen tested about 59,000 reagents; below is a random part of them. Over the whole deposit, about 1,510 (2.6%) were called active. 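Calls use total luciferase alone and ignore viability, so some active siRNAs may act by altering cell number.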 The numbers tell different reagents against one gene apart.

target gene	siRNA no.	total luciferase, z-score	total luciferase, % of control	luciferase per cell, z-score	viable cells, % of control	outcome
MRPL20 (mitochondrial ribosomal protein L20)	1	-2.69	28.5	0.566	27.4	inactive
MRPL20 (mitochondrial ribosomal protein L20)	2	-0.0348	81.2	-0.546	105	inactive
MRPL20 (mitochondrial ribosomal protein L20)	3	0.188	85.6	0.172	91.5	inactive
UNG (uracil DNA glycosylase)	1	-1.2	58	-1.47	95.4	inactive
UNG (uracil DNA glycosylase)	2	-1.4	54	-1.95	101	inactive
UNG (uracil DNA glycosylase)	3	-0.153	78.8	-0.338	96.3	inactive
CDK15 (cyclin dependent kinase 15)	1	-1.41	53.8	0.279	55.8	inactive
CDK15 (cyclin dependent kinase 15)	2	0.602	93.9	-0.152	109	inactive
CDK15 (cyclin dependent kinase 15)	3	0.879	99.4	1.11	82.9	inactive
CXCR5 (C-X-C motif chemokine receptor 5)	1	0.97	101	0.673	94.7	inactive
CXCR5 (C-X-C motif chemokine receptor 5)	2	3.69	155	2.36	93.1	active
CXCR5 (C-X-C motif chemokine receptor 5)	3	-1.26	56.9	-1.62	97.5	inactive
JAG1 (jagged canonical Notch ligand 1)	1	2.4	130	1.48	98	inactive
JAG1 (jagged canonical Notch ligand 1)	2	-0.426	73.4	-0.913	104	inactive
JAG1 (jagged canonical Notch ligand 1)	3	-1.39	54.2	-0.587	70.7	inactive
ARL4D (ARF like GTPase 4D)	1	1.61	114	1.49	86	inactive
ARL4D (ARF like GTPase 4D)	2	-0.298	76	-0.486	96.5	inactive
ARL4D (ARF like GTPase 4D)	3	0.346	88.8	-0.0749	101	inactive
TIRAP (TIR domain containing adaptor protein)	1	0.206	86	-0.392	107	inactive
TIRAP (TIR domain containing adaptor protein)	2	2.64	134	1.46	102	inactive
TIRAP (TIR domain containing adaptor protein)	3	0.082	83.5	-0.117	96.2	inactive
ATP5MC1 (ATP synthase membrane subunit c locus 1)	1	1.81	118	0.544	114	inactive
ATP5MC1 (ATP synthase membrane subunit c locus 1)	2	0.947	101	1.2	82	inactive
ATP5MC1 (ATP synthase membrane subunit c locus 1)	3	-1.21	57.9	-0.689	77.5	inactive

No new results follow: 2 of the entries above.
target gene	siRNA no.	total luciferase, z-score	total luciferase, % of control	luciferase per cell, z-score	viable cells, % of control	outcome
CDK15 (cyclin dependent kinase 15)	3	0.879	99.4	1.11	82.9	inactive
CXCR5 (C-X-C motif chemokine receptor 5)	1	0.97	101	0.673	94.7	inactive
